About 3,700 (1.2%) of roughly 300,000 compounds were called active. The inconclusive results got no clear call from the source; some entries with a clear call stand among them for comparison. Calls come from the whole dose curve; tested in HEK293 cells. Where the call is inconclusive, the potency comes from a doubtful curve fit.
Test: qHTS for Inhibitors of binding or entry into cells for Lassa Virus; note: nearly all actives have a fitted effect of over 50% in size
Details: Lassa virus pseudotype entry inhibition, cell reporter; series mostly up to 37.9 µM
Potency is the fitted concentration of half-maximal effect.

SMILES | Potency
COc1ccc(CCc2ccc3cc(OC)ccc3n2)cc1 | inconclusive: 17.8 µM [inhibitor, single point]
Cc1ccc(/C=N/c2sc3c(c2C#N)CCCCC3)o1 | inconclusive: 0.891 µM [activator, full curve, poor fit]
COc1ccc(CN(C)C(=O)c2ccncc2)c(OC)c1 | inconclusive: 10 µM [activator, partial curve, poor fit]
COc1cccc2cc(C(=O)NCCc3ccccc3)c(=O)oc12 | inconclusive: 0.282 µM [inhibitor, full curve, poor fit]
CC(=O)N1CCc2c(sc(NC(=O)Cc3ccc(C)cc3C)c2C#N)C1 | inconclusive: 3.55 µM [inhibitor, single point]
C=CCOc1ccc(C(c2c(C)n(C)n(-c3ccccc3)c2=O)c2c(C)n(C)n(-c3ccccc3)c2=O)cc1 | inconclusive: 1.78 µM [inhibitor, partial curve, poor fit]
CC(C)CSc1nc2c(c(=O)[nH]c(=O)n2C)n1CCc1ccccc1 | inconclusive: 2 µM [inhibitor, full curve]
O=c1c2ccc(Cl)cc2nc(-c2ccc([N+](=O)[O-])cc2)n1O | inconclusive: 35.5 µM [inhibitor, single point]
C/C(=N\N=C\c1ccccc1)c1nnn(-c2nonc2N)c1C | inactive
CC1CCN(C(=O)Cn2ncc3c4ccccc4n(C)c3c2=O)CC1 | inactive
CC(=NNC(=S)N1CCCCCC1)c1cccc2cccnc12 | inconclusive: 35.5 µM [inhibitor, single point]
CCN1C(=NCCc2ccccn2)NC(c2cccc(C(F)(F)F)c2)C(C(=O)OC)=C1C (configuration not stated) | inconclusive: 2.99 µM [activator, single point]
COc1ccc(NC(=O)C(C)n2nc(-c3ccc(C)c(C)c3)ccc2=O)cc1OC (configuration not stated) | inactive
COc1ccc(CCN2CCC(Nc3nc4ccccc4n3Cc3ccc(F)cc3)CC2)cc1 | inconclusive: 29.1 µM [inhibitor, single point]
COc1ccc(NC(=O)CSc2nc3ccccc3n2-c2ccccc2)c([N+](=O)[O-])c1 | inconclusive: 18.3 µM [inhibitor, single point]
O=C(COc1ccccc1)NC(=S)Nc1cccc([N+](=O)[O-])c1 | inactive
CCc1ccccc1N(C(=O)c1snc(C(N)=O)c1N)C(C(=O)NCC1CCCO1)c1ccc(C)o1 (configuration not stated) | inconclusive: 0.562 µM [inhibitor, single point]
Cc1ccc(CCC(=O)Nc2nccs2)o1 | inactive
Cc1ccc(NC(=O)Cn2cc(S(=O)(=O)c3ccc(C)cc3)c(=O)c3cc4c(cc32)OCO4)cc1 | inactive
CC(=O)Nc1cc(OC(C)=O)c2nonc2c1OC(C)=O | inconclusive: 6.51 µM [inhibitor, single point]
CNC(=O)CC1C(=O)N(C)C(=S)N1NC(=O)c1ccc(Cl)cc1 (configuration not stated) | inactive
COc1ccc(Cl)cc1NC(=O)c1cccc([N+](=O)[O-])c1O | inconclusive: 2.51 µM [activator, partial curve, poor fit]
C/C(=N\NC(=S)NC(C)C)c1ccc2c(c1)OCCO2 | inconclusive: 15.8 µM [inhibitor, single point]

Quoted at random: 2 records from the list.
SMILES | Potency
CCc1ccccc1N(C(=O)c1snc(C(N)=O)c1N)C(C(=O)NCC1CCCO1)c1ccc(C)o1 (configuration not stated) | inconclusive: 0.562 µM [inhibitor, single point]
CC(C)CSc1nc2c(c(=O)[nH]c(=O)n2C)n1CCc1ccccc1 | inconclusive: 2 µM [inhibitor, full curve]

Remaining list, next part

SMILES | Potency
Cc1ccccc1NC(=O)CSc1ccc(-c2ccco2)nn1 | inactive
O=C(N/N=C/c1ccco1)Nc1ccccc1 | inconclusive: 2.82 µM [activator, partial curve]
CCOC(=O)C(=CNc1ccccc1N1CCOCC1)C(=O)OCC | inconclusive: 6.31 µM [inhibitor, full curve, poor fit]
CCN(Cc1ccncc1)C(=O)C(CO)c1ccccc1 (configuration not stated) | inconclusive: 2.91 µM [inhibitor, partial curve, poor fit]
CCOC(=O)C(C)Oc1cccc2c(=O)n(CC(=O)NCc3ccccc3)ccc12 (configuration not stated) | inconclusive: 6.31 µM [inhibitor, partial curve, poor fit]
COC(=O)C1=C(C)N(Cc2ccccc2)C(=O)N[C@H]1c1ccccc1 | inconclusive: 29.1 µM [inhibitor, single point]
Cc1cc2c(N=O)c(NO)ccc2[nH]1 | inconclusive: 11.2 µM [inhibitor, partial curve, poor fit]
COc1cc(NC(=O)C2CSC3(C)CCC(=O)N23)c(OC)cc1Cl (configuration not stated) | inactive
Cc1ccc(CSc2cn(CC(=O)N3CCCC3)c3ccccc23)cc1 | inactive
CCOc1ccc(Nc2oc(-c3ccc(Cl)cc3)nc2C#N)cc1 | active: 16.4 µM
NS(=O)(=O)c1ccc(N/N=C/c2cn(-c3ccccc3)nc2-c2cccs2)c([N+](=O)[O-])c1 | inconclusive: 5.01 µM [inhibitor, full curve, poor fit]
CN(C(=O)c1cc2nc(-c3ccco3)cc(C(F)(F)F)n2n1)c1ccc(OC(F)(F)Cl)cc1 | inconclusive: 11.2 µM [activator, partial curve]
COc1cccc(-c2ccc(NC(=O)C3CCCN(CCCn4cccn4)C3)cc2)c1 (configuration not stated) | inconclusive: 35.5 µM [inhibitor, single point]
O=C(c1cc(-c2ccc(Cl)cc2)n(-c2ccc(Cl)cc2)n1)N1CCOCC1 | inconclusive: 11.2 µM [inhibitor, single point]
O=C(c1cc(COc2ccccc2)on1)N1CCCC(OCc2cccnc2)C1 (configuration not stated) | inactive
COc1cccc2cc(C(=O)Oc3ccc(NC(C)=O)cc3)c(=O)oc12 | inactive
CCOc1ccc(-c2nnc3sc(COc4ccc(C)cc4)nn23)cc1 | active: 8.2 µM
CCOc1ccc(NC(=S)NN2C(C)CCCC2C)cc1 (configuration not stated) | inactive
CC(C)OCCCNC(=O)c1ccc2c(c1)NC(=O)c1ccccc1S2 | inconclusive: 10 µM [inhibitor, partial curve, poor fit]
Cn1ccnc1Sc1ccc(C(N)=O)cc1[N+](=O)[O-] | inconclusive: 2.24 µM [inhibitor, partial curve, poor fit]
N/C(=N\OC(=O)COc1ccc(Br)cc1)c1cccnc1 | inactive
COc1cc(Nc2ncnc(N)n2)cc(OC)c1 | inconclusive: 35.5 µM [inhibitor, single point]
O=C(c1cccs1)N1CCCc2ccccc21 | inactive

SMILES | Potency
Cc1cc(C(=O)OCn2nnc3ccccc3c2=O)c(C)n1-c1ccccc1 | inconclusive: 20 µM [inhibitor, single point]
CCOc1ccc(CCNC(=O)CSCc2ccc(C)cc2)cc1OCC | inconclusive: 5.01 µM [inhibitor, partial curve, poor fit]
C/C(=N\NC(=O)C1COc2ccccc2O1)c1ccc(N2CCOCC2)cc1 (configuration not stated) | inconclusive: 35.5 µM [inhibitor, single point]
CCN(CC)S(=O)(=O)c1ccc(N2CCOCC2)c(NS(=O)(=O)c2ccc(C(C)C)cc2)c1 | inactive
CSc1nsc(SCC(=O)Nc2ccc(C(N)=O)cc2)n1 | inconclusive: 11.6 µM [inhibitor, partial curve, poor fit]
CCN(C(=O)C1CCC(CNS(=O)(=O)c2cccc3nsnc23)CC1)c1ccc(C)c(C)c1 (configuration not stated) | inactive
CCOCCCNC(=O)c1cn(C)c(=O)c2cc(OC)c(OC)cc12 | inconclusive: 0.112 µM [activator, full curve, poor fit]
O=c1[nH]c(C2CCN(S(=O)(=O)c3cccc(Cl)c3)CC2)nc2c1nnn2Cc1ccccc1 | inconclusive: 35.5 µM [inhibitor, partial curve, poor fit]
Oc1ccccc1C(=S)N1CCCCC1 | inconclusive: 10 µM [activator, partial curve]
OC(COCCC12CC3CC(CC(C3)C1)C2)CN1CCCCC1 (configuration not stated) | inconclusive: 29.1 µM [inhibitor, single point]
COc1ccc(NC(=O)Nc2nnc(C)s2)cc1 | inactive
COc1ccc(S(=O)(=O)N2CCCC(C(=O)NCCN3CCOCC3)C2)cc1C (configuration not stated) | inconclusive: 1 µM [inhibitor, single point]
Cc1noc(C)c1COc1cccc(C(=O)Nc2ccc(Br)cc2F)c1 | inconclusive: 10 µM [inhibitor, partial curve, poor fit]
Cc1cc(/C=N/NC(=O)c2ccc(CN3CCOCC3)cc2)c(C)n1-c1ccccc1 | inconclusive: 11.6 µM [inhibitor, partial curve, poor fit]
S=C(NCCSCc1ccc(Cl)cc1)Nc1ccccc1 | inconclusive: 3.55 µM [inhibitor, partial curve, poor fit]
Nc1nc(SCc2ccc([N+](=O)[O-])cc2)c2ncn([C@@H]3O[C@H](CO)[C@@H](O)[C@H]3O)c2n1 | inconclusive: 20.6 µM [activator, single point]
CCOC(=O)C1CCN(c2nc3c(S(=O)(=O)c4ccccc4)nnn3c3ccsc23)CC1 | inconclusive: 11.2 µM [inhibitor, partial curve, poor fit]
CSCCC(NS(=O)(=O)c1ccc(Cl)cc1)C(=O)OCC(=O)N(C(C)C)C(C)C (configuration not stated) | inconclusive: 35.5 µM [inhibitor, partial curve, poor fit]
COc1ccc(NC(=O)CSc2nccn2Cc2ccco2)cc1 | inconclusive: 8.91 µM [inhibitor, partial curve, poor fit]
O=C(Nc1ccc(N2CCN(C(=O)c3ccco3)CC2)c(Cl)c1)c1cccnc1 | inactive
Cc1ccc(CC(=O)Nc2nc3c(s2)CCCC3)cc1 | inconclusive: 23.1 µM [inhibitor, partial curve, poor fit]
